Experimental data taken from patent US8466177B2 (priority 2007, dated 2013).
Some of these results come from one statement about several compounds together. At least one structure is not confirmed: it was looked up by name or label, or the drawing left a doubt.

Tested on: A/Udorn/72, H3N2
Format: cell-based, influenza virus
Details: 50 nM

| Compound | difference in virus concentration versus the untreated MDCK cells (viral yield) |
| --- | --- |
| O=C1/C(=C/c2ccc(-c3ccc(F)cc3)o2)SC(=S)N1C1CCCCC1 [A1, (Z)-3-Cyclohexyl-5-{[5-(4-fluorophenyl)furan-2-yl]-methylene}-2-thioxothiazolidin-4-one] | ≥ 3 log |
| Cc1ccc(-c2ccc(/C=C3\SC(=S)N(C4CCCCCCC4)C3=O)o2)cc1 [A17, (Z)-3-cyclooctyl-5-{[(4-methylphenyl)furan-2-yl]methylene}-2-thioxothiazolidin-4-one] | ≥ 3 log |
